In publication PMC5311907 (Interface Focus, 2017):

Assay: general procedure: Fmoc solid-phase peptide synthesis; Rink amide ChemMatrix; DIC/Oxyma
Conditions: conjugation step

COX8-Cys-Ac-GTCA-Lys(N3)-NH2
conjugation yield: 80%
